{"source": "patent US20090123572A1", "binders": {"B1": {"name": "recombinant squamous cell carcinoma antigen 1 (SCCA-1) (protein, human, UniProt P29508 1-390, looked up)", "chain": "MNSLSEANTKFMFDLFQQFRKSKENNIFYSPISITSALGMVLLGAKDNTAQQIKKVLHFDQVTENTTGKAATYHVDRSGNVHHQFQKLLTEFNKSTDAYELKIANKLFGEKTYLFLQEYLDAIKKFYQTSVESVDFANAPEESRKKINSWVESQTNEKIKNLIPEGNIGSNTTLVLVNAIYFKGQWEKKFNKEDTKEEKFWPNKNTYKSIQMMRQYTSFHFASLEDVQAKVLEIPYKGKDLSMIVLLPNEIDGLQKLEEKLTAEKLMEWTSLQNMRETRVDLHLPRFKVEESYDLKDTLRTMGMVDIFNGDADLSGMTGSRGLVLSGVLHKAFVEVTEEGAEAAAATAVVGFGSSPTSTNEEFHCNHPFLFFIRQNKTNSILFYGRFSSP"}}, "target": "T1, purified caspase-14 from human cornified cells (heterodimer of 17 KDa large subunit and 11 KDa small subunit) (human) (UniProt P31944)", "T1 sequence (looked up) 1": "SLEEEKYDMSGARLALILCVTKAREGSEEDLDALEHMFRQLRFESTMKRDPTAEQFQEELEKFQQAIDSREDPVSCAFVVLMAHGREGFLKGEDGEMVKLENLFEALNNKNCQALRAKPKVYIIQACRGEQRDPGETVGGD", "T1 sequence (looked up) 2": "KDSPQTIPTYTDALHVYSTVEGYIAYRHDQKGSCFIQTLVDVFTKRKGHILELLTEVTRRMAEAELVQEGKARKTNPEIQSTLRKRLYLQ", "assay": "inferred from lasting inhibition of ICAD decomposition by caspase-14 (Western blot)", "note": "These are yes or no findings as the source states them, for the method shown. Some results given as binding are weak or reduced against the parent protein; the word gives no strength."}
{"binder": "B1", "values": [{"measurement": "binding", "result": "binds"}]}
